PubChem BioAssay AID504744 | Drosophila RNAi Screening Center, 2011

- Assay: 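Uncover factors, including feedback loops, that control dAkt activation in fly cells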 (primary screen)
- Cell system: Drosophila Kc167 cells
- Reagents: long dsRNA against Drosophila genes, 250 ng dsRNA per well of a 384-well plate
- Timing: 3 days of knock-down, then overnight serum-free starvation before stimulation
- Conditions: bovine insulin at 387 nM for 10 minutes after 12 h without serum
- Read-out: 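In-cell antibody fluorescence for phospho-dAkt in each well over DNA-dye signal, with log2 residuals expressed as z-scores adjusted for cell count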
- Rule for the call: 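Hit in the insulin screen when the two-replicate mean z-score is more extreme than plus or minus 2.5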
In all, the deposit lists about 23,000 reagents; this is an unselected part of those that have a named target and a result. Of all reagents, 98 (0.43%) were called active. 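Only hit calls are given; the phospho-dAkt signals, z-scores and hit direction were not deposited.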 The numbers tell different reagents against one gene apart. A plus sign joins genes that one reagent is predicted to hit.

With knock-down of Miox, the screen gave inactive.
Against Abd-B #1 the deposit lists inactive.
Abd-B #2 scored inactive.
Depletion of CG1136 resulted in: inactive.
After knock-down of CG6959, the screen gave inactive.
After knock-down of RhoGAP71E #1 the results were inactive.
Silencing of RhoGAP71E #2 came out at: inactive.
Against RhoGAP71E #3, the entry reads inactive.
With knock-down of CG14219 the results were inactive.
For CycY, the entry reads inactive.
Pex23 #1 gave inactive.
With knock-down of Pex23 #2 the results were inactive.
Silencing of CG15873 gave: inactive.
pasi1 #1 gave inactive.
For pasi1 #2, the values are inactive.
CG13003 scored inactive.
With knock-down of ci, the record shows inactive.
For CG17298 the deposit lists inactive.
Against Mpv17, the entry reads inactive.
Knock-down of CG34214 resulted in: inactive.
GCS2alpha gave inactive.
After knock-down of GlcAT-P #1, the screen gave inactive.
Knock-down of GlcAT-P #2 gave: inactive.
gprs gave inactive.
Against ND-B14.5B, the values are inactive.

Laid out differently: 9 of the entries above.
CG6959
- activity call: inactive

RhoGAP71E #1
- activity call: inactive

RhoGAP71E #2
- activity call: inactive

RhoGAP71E #3
- activity call: inactive

CG14219
- activity call: inactive

CycY
- activity call: inactive

Pex23 #1
- activity call: inactive

Pex23 #2
- activity call: inactive

CG15873
- activity call: inactive

Further results:
For Ipo9, the values are inactive.
imd gave inactive.
After knock-down of CG13724, the screen gave inactive.
Hel25E gave inactive.
With knock-down of CG2246, the screen gave inactive.
For HP1c the deposit lists inactive.
CG34171 showed inactive.
brv1 showed inactive.
With knock-down of CG14327, the record shows inactive.
Against CG7183, the values are inactive.
Against par-6, the values are inactive.
CG9004 showed inactive.
alien + CG17906 scored inactive.
Silencing of Gfat1 resulted in: inactive.
With knock-down of CG31948, the screen gave inactive.
Against CG12177 #1 the deposit lists inactive.
Depletion of CG12177 #2 gave: inactive.
Against Duba, the entry reads inactive.
Depletion of GCS2beta gave: inactive.
For CG7290, the values are inactive.
After knock-down of PSMG1, the screen gave inactive.
Knock-down of CG5023 gave: inactive.
Against Idgf5, the entry reads inactive.
With knock-down of CG5043, the screen gave inactive.
Silencing of dgt1 resulted in: inactive.
With knock-down of lush, the screen gave inactive.
CG10559 scored inactive.
fzo showed inactive.
Against CG31797 #1, the values are inactive.
CG31797 #2 showed inactive.
With knock-down of CG4741 the results were inactive.
Uxs showed inactive.
After knock-down of CG31176 #1 the results were inactive.
With knock-down of CG31176 #2, the record shows inactive.
Taf6 showed inactive.
Against Cp7Fb the deposit lists inactive.
Silencing of CG11425 gave: inactive.
Depletion of CG6805 resulted in: inactive.
CG33282 showed inactive.
Against SCaMC #1, the entry reads inactive.
For SCaMC #2 the deposit lists inactive.
CG7766 scored inactive.
With knock-down of Lsp1alpha the results were inactive.
Coq4 + frc #1 showed inactive.
Coq4 + frc #2 showed inactive.
After knock-down of PTPMT1, the record shows inactive.
Knock-down of Sec61gamma gave: inactive.
After knock-down of or, the record shows inactive.
